Data as given in publication PMC12552625.
These are yes or no findings as the source states them, for the method shown. In cells and extracts the contact can be indirect. Some entries that bind do so weakly or less than the wild type.

By UniProt entry, the sequences of proteins in these tests, tags left out.
UniProt Q92963: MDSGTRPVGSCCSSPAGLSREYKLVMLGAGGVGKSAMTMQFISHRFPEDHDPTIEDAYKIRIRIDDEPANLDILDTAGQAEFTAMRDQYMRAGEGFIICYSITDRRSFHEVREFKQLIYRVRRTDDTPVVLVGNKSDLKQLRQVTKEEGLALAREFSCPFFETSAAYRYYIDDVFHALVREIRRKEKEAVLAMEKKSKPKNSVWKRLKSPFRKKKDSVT
UniProt P61289: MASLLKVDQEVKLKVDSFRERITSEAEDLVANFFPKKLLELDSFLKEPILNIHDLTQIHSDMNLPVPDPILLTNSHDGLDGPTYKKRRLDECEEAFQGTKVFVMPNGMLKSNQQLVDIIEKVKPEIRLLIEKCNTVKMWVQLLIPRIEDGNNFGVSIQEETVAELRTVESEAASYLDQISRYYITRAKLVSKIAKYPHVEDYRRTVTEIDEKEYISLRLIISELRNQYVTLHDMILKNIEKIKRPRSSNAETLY

Target: RIT1 (HA tag) (UniProt Q92963)
Assay: co-IP; U-CH1 cells, 36 h after plasmid transfection, RIPA lysis buffer at 4 °C; specific agarose beads, 4 °C for 4 h, washed three times, Western blot; which protein was precipitated is not told

Substance: REGγ (Flag tag) (from UniProt P61289 1-254)
- binding: binds
